{"source": "PubChem BioAssay AID2685", "about": "(National Center for Advancing Translational Sciences (NCATS), 2010)", "assay": "qHTS Assay for Lipid Storage Modulators in Drosophila S3 Cells;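 as to cell number change: cells counted by Cell Tracker Red CMTPX staining in the red channel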", "conditions": "BODIPY lipid droplet fluorescence, 18-24 h; for cell number change: measured here: cell count max response, cells fed with added oleic acid", "in_short": "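Drosophila S3 cells got compounds at several concentrations plus oleic acid (400 uM solution). Laser-scanning cytometry with 488 nm excitation read lipid droplets at 500-530 nm and cells at 575-640 nm. Percent activity was relative to 20 uM Triacsin C.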", "key": {"[1]": {"conditions": "measured here: cell number channel AC50, cells fed with added oleic acid"}, "[2]": {"conditions": "measured here: lipid fluorescence (Fed channel) AC50, cells fed with added oleic acid"}}, "note": "The other results are listed elsewhere or left out. The main result of the screen is listed elsewhere. These columns were measured beside it and carry no call. The list favours compounds with an active or inconclusive main result. The note in brackets gives the kind of curve behind each potency; many fits are weak.", "data": [{"smiles": "COC(=O)c1ccc2nc(Nc3nc4c(F)cc(F)cc4s3)sc2c1", "values": [{"measurement": "cell number change", "result": -41.9, "unit": "%"}, {"measurement": "AC50", "setting": "[1]", "result": "6.51 µM [falling, full curve, poor fit]"}, {"measurement": "AC50", "setting": "[2]", "result": "18.4 µM [rising, single point]"}]}, {"smiles": "COc1ccc2c(c1)Cc1sc(NC(=O)c3ccco3)nc1-2", "values": [{"measurement": "cell number change", "result": -7.65, "unit": "%"}, {"measurement": "AC50", "setting": "[2]", "result": "25.9 µM [falling, single point]"}]}, {"smiles": "Cc1ccccc1OCC(=O)NCCN(C)C", "values": [{"measurement": "cell number change", "result": 4.48, "unit": "%"}, {"measurement": "AC50", "setting": "[2]", "result": "0.517 µM [falling, single point]"}]}, {"smiles": "Cc1ccc(C(=O)OCc2c(C)noc2C)cc1NC(=O)c1ccco1", "values": [{"measurement": "cell number change", "result": 28.3, "unit": "%"}, {"measurement": "AC50", "setting": "[1]", "result": "0.231 µM [rising, full curve, poor fit]"}, {"measurement": "AC50", "setting": "[2]", "result": "0.259 µM [rising, full curve]"}]}, {"smiles": "Cc1cc(C)c2c(=O)cc(C(=O)NCc3ccccc3)oc2c1", "values": [{"measurement": "cell number change", "result": 13.6, "unit": "%"}, {"measurement": "AC50", "setting": "[2]", "result": "23.1 µM [rising, single point]"}]}, {"smiles": "CC1CCN(c2ccc(NC(=O)C3CCCN3S(=O)(=O)c3ccc(F)cc3)cc2)CC1", "note": "(stereo unspecified)", "values": [{"measurement": "cell number change", "result": -12.8, "unit": "%"}, {"measurement": "AC50", "setting": "[2]", "result": "18.4 µM [falling, single point]"}]}, {"smiles": "COc1cc(C(=O)NC(=S)Nc2cccc(-c3cc4ccccc4oc3=O)c2)cc(OC)c1OC", "values": [{"measurement": "cell number change", "result": -12.1, "unit": "%"}, {"measurement": "AC50", "setting": "[2]", "result": "32.6 µM [falling, partial curve, poor fit]"}]}, {"smiles": "Nc1c(-c2ccccc2)c(CSc2nc3ccccc3[nH]2)nn1-c1cccc(C(=O)O)c1", "values": [{"measurement": "cell number change", "result": 19.7, "unit": "%"}, {"measurement": "AC50", "setting": "[2]", "result": "18.4 µM [falling, partial curve]"}]}, {"smiles": "O=C(COC(=O)c1cccc(S(=O)(=O)N2CCN(c3ccc(F)cc3)CC2)c1)NCC1CCCO1", "note": "(stereo unspecified)", "values": [{"measurement": "cell number change", "result": -21.9, "unit": "%"}, {"measurement": "AC50", "setting": "[1]", "result": "0.116 µM [falling, full curve, poor fit]"}, {"measurement": "AC50", "setting": "[2]", "result": "0.731 µM [falling, full curve]"}]}, {"smiles": "O=C1CCCCCN1CP(=O)(O)CN1CCOCC1", "values": [{"measurement": "cell number change", "result": -17.6, "unit": "%"}, {"measurement": "AC50", "setting": "[2]", "result": "32.6 µM [falling, single point]"}]}, {"smiles": "CC(C)c1ccc(NC(=O)NCc2ccc3c(c2)OCO3)cc1", "values": [{"measurement": "cell number change", "result": 11.6, "unit": "%"}, {"measurement": "AC50", "setting": "[2]", "result": "8.91 µM [rising, partial curve]"}]}, {"smiles": "CCCNC(=O)c1ccc(Cl)cc1Cl", "values": [{"measurement": "cell number change", "result": 26.1, "unit": "%"}, {"measurement": "AC50", "setting": "[1]", "result": "0.0103 µM [rising, full curve, poor fit]"}, {"measurement": "AC50", "setting": "[2]", "result": "0.0259 µM [rising, full curve]"}]}, {"smiles": "O=C(/C=C/c1ccccc1)NC(=S)Nc1ccccc1C(=O)NC1CCCCC1", "values": [{"measurement": "cell number change", "result": -7.47, "unit": "%"}, {"measurement": "AC50", "setting": "[2]", "result": "20.6 µM [falling, single point]"}]}, {"smiles": "CN(c1ccc(C(=O)N2CCOCC2)cc1)S(=O)(=O)c1cccs1", "values": [{"measurement": "cell number change", "result": 8.7, "unit": "%"}, {"measurement": "AC50", "setting": "[2]", "result": "29.1 µM [rising, single point]"}]}, {"smiles": "Cc1ccccc1C(=O)O/N=C(\\N)c1ccccc1", "values": [{"measurement": "cell number change", "result": 7.41, "unit": "%"}, {"measurement": "AC50", "setting": "[2]", "result": "1.16 µM [rising, full curve, poor fit]"}]}, {"smiles": "C/C(=N\\NC(=O)c1nnn(-c2nonc2N)c1-c1ccccc1)c1ccccc1O", "values": [{"measurement": "cell number change", "result": 126, "unit": "%"}, {"measurement": "AC50", "setting": "[1]", "result": "20.6 µM [rising, partial curve]"}, {"measurement": "AC50", "setting": "[2]", "result": "4.11 µM [falling, full curve]"}]}, {"smiles": "CCOc1ccc2nc(-c3ccc(OC)c(OC)c3)cc(C(=O)O)c2c1", "values": [{"measurement": "cell number change", "result": 20.6, "unit": "%"}, {"measurement": "AC50", "setting": "[2]", "result": "29.1 µM [falling, single point]"}]}, {"smiles": "CCOCC(=O)Nc1cccc(-c2nc3cccnc3s2)c1C", "values": [{"measurement": "cell number change", "result": 7.24, "unit": "%"}, {"measurement": "AC50", "setting": "[2]", "result": "4.11 µM [rising, partial curve]"}]}, {"smiles": "CSc1nnc(C)c(=O)n1COC(=O)c1ccc(S(=O)(=O)N(C)C)cc1", "values": [{"measurement": "cell number change", "result": -23.2, "unit": "%"}, {"measurement": "AC50", "setting": "[2]", "result": "5.17 µM [falling, full curve, poor fit]"}]}, {"smiles": "COCc1cccc(C2=CC(=O)C[C@H](c3ccc(OC)cc3)C2)c1", "values": [{"measurement": "cell number change", "result": -6.74, "unit": "%"}]}, {"smiles": "Cc1ccc(NC(=S)NCc2ccccc2)cc1S(=O)(=O)N1CCCCC1", "values": [{"measurement": "AC50", "setting": "[2]", "result": "29.1 µM [falling, partial curve]"}]}, {"smiles": "CN(C)S(=O)(=O)c1cccc(C(=O)Nc2ccc(Cl)cn2)c1", "values": [{"measurement": "cell number change", "result": -2.17, "unit": "%"}, {"measurement": "AC50", "setting": "[2]", "result": "18.4 µM [falling, single point]"}]}, {"smiles": "O=C(CSc1n[nH]c(-c2ccco2)n1)Nc1ccc(Br)cc1", "values": [{"measurement": "cell number change", "result": -30.7, "unit": "%"}, {"measurement": "AC50", "setting": "[1]", "result": "3.26 µM [falling, full curve, poor fit]"}, {"measurement": "AC50", "setting": "[2]", "result": "6.51 µM [falling, single point]"}]}, {"smiles": "Cn1c2ccccc2c2nnc(SCc3ccc4nonc4c3)nc21", "values": [{"measurement": "cell number change", "result": 14.9, "unit": "%"}, {"measurement": "AC50", "setting": "[2]", "result": "6.51 µM [rising, single point]"}]}, {"smiles": "O=C(CN1C(=O)CCC1=O)NNc1ccc2ccccc2c1", "values": [{"measurement": "cell number change", "result": -33.5, "unit": "%"}, {"measurement": "AC50", "setting": "[1]", "result": "29.1 µM [falling, single point]"}]}, {"smiles": "COc1ccc(/C=C2\\SC(=O)N(CCNC(=O)C3=COCCO3)C2=O)cc1", "values": [{"measurement": "AC50", "setting": "[2]", "result": "2.91 µM [rising, single point]"}]}, {"smiles": "Cc1ccc(S(=O)(=O)NCC(C)n2nc(C)cc2C)cc1", "note": "(stereo unspecified)", "values": [{"measurement": "cell number change", "result": 4.78, "unit": "%"}, {"measurement": "AC50", "setting": "[2]", "result": "14.6 µM [rising, partial curve]"}]}, {"smiles": "CN1C(=O)/C(=C\\c2ccc(N(C)C)cc2)OC1=S", "values": [{"measurement": "cell number change", "result": 17.3, "unit": "%"}, {"measurement": "AC50", "setting": "[2]", "result": "9.2 µM [falling, partial curve, poor fit]"}]}, {"smiles": "COc1ccccc1N(C(=O)c1snc(C(N)=O)c1N)C(C(=O)NCCC(C)C)c1ccco1", "note": "(stereo unspecified)", "values": [{"measurement": "cell number change", "result": 3.09, "unit": "%"}, {"measurement": "AC50", "setting": "[1]", "result": "1.46 µM [rising, partial curve]"}, {"measurement": "AC50", "setting": "[2]", "result": "1.46 µM [rising, partial curve, poor fit]"}]}, {"smiles": "Cc1ccc(S(=O)(=O)N2CCOCC2)cc1NC(=O)COC(=O)CNC(=O)c1ccc(Oc2ccccc2)cc1", "values": [{"measurement": "cell number change", "result": 16.1, "unit": "%"}, {"measurement": "AC50", "setting": "[2]", "result": "3.26 µM [falling, partial curve, poor fit]"}]}, {"smiles": "COc1ccccc1NC(=O)Nc1nnc(-c2ccco2)s1", "values": [{"measurement": "cell number change", "result": -35.1, "unit": "%"}, {"measurement": "AC50", "setting": "[1]", "result": "29.1 µM [falling, single point]"}, {"measurement": "AC50", "setting": "[2]", "result": "23.1 µM [falling, single point]"}]}, {"smiles": "O=C(COC(=O)C1CCC1)Nc1ccc(OC(F)F)cc1", "values": [{"measurement": "cell number change", "result": -3.02, "unit": "%"}, {"measurement": "AC50", "setting": "[2]", "result": "0.013 µM [falling, full curve, poor fit]"}]}, {"smiles": "CCOC(=O)C1(Cc2cccc(OC)c2)CCN(Cc2cccc(OCC)c2O)CC1", "values": [{"measurement": "cell number change", "result": -23.7, "unit": "%"}, {"measurement": "AC50", "setting": "[2]", "result": "0.103 µM [falling, full curve, poor fit]"}]}, {"smiles": "O=C1NC(=S)N/C1=C/c1cc([N+](=O)[O-])ccc1O", "values": [{"measurement": "cell number change", "result": 47.7, "unit": "%"}, {"measurement": "AC50", "setting": "[1]", "result": "29.1 µM [rising, single point]"}, {"measurement": "AC50", "setting": "[2]", "result": "0.58 µM [falling, full curve]"}]}, {"smiles": "CCN(CC(=O)Nc1ccccc1C(F)(F)F)C(=O)c1ccccc1SCC(=O)N1CCCC1", "values": [{"measurement": "AC50", "setting": "[1]", "result": "0.461 µM [rising, full curve]"}, {"measurement": "AC50", "setting": "[2]", "result": "20.6 µM [falling, single point]"}]}]}
